# Results from the supplement of paper PMC6411743.
# Sequences of proteins named here, by UniProt entry; tags and fusion partners are left off. A change or cut given only in a name is not applied to a line headed by its entry.
# UniProt P13797: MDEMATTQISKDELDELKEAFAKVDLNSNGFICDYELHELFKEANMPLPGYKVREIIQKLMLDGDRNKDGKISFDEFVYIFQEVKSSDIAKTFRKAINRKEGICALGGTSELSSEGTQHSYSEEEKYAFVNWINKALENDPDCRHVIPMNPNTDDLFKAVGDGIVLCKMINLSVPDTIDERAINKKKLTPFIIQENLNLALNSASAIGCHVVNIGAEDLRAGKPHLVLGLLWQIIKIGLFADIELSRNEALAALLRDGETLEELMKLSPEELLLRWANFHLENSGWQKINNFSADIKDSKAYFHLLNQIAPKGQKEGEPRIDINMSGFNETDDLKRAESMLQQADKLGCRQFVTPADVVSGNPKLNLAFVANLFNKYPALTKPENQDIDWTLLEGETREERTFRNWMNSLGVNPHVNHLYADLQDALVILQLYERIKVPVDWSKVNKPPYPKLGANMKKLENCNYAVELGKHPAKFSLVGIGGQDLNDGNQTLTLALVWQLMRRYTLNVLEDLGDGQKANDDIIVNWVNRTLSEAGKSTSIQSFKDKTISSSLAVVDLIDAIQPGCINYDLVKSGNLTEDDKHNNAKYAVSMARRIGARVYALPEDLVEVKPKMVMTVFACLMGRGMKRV
# UniProt P51003: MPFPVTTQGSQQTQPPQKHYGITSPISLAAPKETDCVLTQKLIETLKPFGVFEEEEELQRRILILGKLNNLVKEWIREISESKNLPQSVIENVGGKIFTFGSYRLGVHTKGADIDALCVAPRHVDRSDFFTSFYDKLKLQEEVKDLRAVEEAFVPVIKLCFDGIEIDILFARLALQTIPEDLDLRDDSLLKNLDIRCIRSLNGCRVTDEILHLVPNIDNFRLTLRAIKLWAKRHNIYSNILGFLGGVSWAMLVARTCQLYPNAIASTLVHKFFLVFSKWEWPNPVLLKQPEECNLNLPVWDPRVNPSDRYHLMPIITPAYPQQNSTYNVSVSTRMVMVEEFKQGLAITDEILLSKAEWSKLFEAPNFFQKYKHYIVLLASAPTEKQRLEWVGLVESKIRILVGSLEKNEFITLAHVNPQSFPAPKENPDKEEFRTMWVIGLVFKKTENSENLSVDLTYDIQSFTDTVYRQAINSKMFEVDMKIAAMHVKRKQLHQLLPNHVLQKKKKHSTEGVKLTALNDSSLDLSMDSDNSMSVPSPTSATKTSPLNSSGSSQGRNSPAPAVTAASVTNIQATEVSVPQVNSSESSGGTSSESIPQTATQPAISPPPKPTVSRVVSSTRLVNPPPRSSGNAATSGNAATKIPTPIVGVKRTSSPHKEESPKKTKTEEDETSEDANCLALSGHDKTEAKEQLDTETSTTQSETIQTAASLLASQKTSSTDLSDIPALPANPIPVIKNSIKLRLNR
# UniProt P51991: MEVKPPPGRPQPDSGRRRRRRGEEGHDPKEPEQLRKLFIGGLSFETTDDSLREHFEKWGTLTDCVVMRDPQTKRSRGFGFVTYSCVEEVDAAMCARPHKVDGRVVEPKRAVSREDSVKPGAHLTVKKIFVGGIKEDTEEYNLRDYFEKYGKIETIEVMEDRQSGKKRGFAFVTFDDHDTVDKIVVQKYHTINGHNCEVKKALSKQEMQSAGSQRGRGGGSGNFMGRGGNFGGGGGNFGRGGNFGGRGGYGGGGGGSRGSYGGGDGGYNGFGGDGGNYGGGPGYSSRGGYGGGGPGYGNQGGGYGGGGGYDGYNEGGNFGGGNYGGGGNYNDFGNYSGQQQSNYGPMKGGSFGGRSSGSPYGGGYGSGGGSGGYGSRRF
# UniProt Q9HAD4: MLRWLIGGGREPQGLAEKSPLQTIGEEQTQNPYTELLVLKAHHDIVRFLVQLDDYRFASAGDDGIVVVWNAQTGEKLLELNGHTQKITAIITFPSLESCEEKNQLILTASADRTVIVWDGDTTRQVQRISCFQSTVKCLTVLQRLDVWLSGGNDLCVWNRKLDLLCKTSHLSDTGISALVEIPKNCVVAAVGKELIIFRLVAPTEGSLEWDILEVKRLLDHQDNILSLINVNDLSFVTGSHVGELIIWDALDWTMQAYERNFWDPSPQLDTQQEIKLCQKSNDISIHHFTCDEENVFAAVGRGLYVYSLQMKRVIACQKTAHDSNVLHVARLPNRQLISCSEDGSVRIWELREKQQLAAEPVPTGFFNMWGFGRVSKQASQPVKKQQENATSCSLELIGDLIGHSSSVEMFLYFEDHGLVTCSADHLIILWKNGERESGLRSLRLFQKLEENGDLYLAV
# UniProt Q9BRQ6: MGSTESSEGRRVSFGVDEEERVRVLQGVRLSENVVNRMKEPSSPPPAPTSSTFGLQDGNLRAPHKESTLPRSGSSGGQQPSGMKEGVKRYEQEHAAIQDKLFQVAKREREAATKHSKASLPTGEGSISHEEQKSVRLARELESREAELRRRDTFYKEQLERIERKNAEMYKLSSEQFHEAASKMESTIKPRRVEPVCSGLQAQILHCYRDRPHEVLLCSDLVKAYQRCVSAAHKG
# UniProt Q99611, whole entry: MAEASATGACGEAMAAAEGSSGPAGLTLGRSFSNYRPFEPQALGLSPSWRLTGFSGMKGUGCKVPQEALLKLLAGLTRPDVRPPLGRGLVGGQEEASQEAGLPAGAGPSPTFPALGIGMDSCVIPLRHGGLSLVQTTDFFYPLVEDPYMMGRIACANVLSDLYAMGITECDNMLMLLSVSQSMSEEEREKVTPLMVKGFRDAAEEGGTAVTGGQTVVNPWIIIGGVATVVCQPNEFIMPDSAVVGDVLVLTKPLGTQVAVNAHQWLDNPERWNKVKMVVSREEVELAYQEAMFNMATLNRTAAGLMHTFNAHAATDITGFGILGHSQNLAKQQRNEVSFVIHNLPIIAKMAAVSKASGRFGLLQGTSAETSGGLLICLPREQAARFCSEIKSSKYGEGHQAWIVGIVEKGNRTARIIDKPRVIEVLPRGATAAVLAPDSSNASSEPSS
# UniProt Q8NBJ7: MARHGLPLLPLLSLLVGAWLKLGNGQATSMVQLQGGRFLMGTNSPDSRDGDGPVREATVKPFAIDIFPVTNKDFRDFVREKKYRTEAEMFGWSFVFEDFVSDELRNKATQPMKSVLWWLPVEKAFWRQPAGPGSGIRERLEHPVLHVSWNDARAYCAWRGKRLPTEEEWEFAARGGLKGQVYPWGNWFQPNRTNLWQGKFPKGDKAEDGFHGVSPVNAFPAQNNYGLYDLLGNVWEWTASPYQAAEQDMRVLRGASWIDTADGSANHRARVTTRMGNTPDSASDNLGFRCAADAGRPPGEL
# UniProt Q9H9Q2: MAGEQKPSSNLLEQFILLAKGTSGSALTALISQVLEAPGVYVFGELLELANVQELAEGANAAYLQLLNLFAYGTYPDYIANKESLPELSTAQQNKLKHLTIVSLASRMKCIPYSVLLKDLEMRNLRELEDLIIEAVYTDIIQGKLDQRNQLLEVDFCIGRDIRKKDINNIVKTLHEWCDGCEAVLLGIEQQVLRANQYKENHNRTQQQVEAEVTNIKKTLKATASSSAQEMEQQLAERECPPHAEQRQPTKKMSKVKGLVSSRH
# UniProt Q8N1S5: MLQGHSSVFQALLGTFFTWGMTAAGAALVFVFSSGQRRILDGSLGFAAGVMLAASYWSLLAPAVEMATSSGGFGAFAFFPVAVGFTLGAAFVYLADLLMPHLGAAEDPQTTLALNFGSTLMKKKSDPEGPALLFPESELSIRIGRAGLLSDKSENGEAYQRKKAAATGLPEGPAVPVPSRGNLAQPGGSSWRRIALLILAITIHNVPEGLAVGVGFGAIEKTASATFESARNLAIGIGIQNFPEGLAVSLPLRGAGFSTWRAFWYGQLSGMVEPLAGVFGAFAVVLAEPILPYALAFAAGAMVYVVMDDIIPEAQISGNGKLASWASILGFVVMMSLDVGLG
# UniProt Q96CD2: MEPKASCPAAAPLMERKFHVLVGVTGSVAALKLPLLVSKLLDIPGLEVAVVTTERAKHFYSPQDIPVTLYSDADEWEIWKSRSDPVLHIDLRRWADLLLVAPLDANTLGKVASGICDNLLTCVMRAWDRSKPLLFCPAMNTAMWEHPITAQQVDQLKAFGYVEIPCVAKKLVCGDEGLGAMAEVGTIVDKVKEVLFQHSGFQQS
# UniProt Q8NCP5: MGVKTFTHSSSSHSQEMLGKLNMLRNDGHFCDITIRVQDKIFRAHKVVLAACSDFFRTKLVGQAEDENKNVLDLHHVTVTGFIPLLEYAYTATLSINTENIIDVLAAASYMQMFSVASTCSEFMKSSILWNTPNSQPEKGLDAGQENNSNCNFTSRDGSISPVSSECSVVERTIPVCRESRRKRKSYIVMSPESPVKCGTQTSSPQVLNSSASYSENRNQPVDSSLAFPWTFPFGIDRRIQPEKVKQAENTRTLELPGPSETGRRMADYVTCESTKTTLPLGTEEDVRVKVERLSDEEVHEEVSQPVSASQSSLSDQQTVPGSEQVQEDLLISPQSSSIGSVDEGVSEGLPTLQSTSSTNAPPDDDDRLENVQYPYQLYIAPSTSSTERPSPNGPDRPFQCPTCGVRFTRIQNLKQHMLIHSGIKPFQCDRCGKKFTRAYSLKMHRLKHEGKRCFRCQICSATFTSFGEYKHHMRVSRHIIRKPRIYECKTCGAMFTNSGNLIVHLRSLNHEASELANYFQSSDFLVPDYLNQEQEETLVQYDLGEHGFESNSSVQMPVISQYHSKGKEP
# UniProt Q9BRA0: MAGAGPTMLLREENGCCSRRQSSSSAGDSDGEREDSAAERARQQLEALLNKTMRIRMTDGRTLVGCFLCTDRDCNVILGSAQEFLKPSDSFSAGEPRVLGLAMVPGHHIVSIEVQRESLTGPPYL
# UniProt Q8N1F7: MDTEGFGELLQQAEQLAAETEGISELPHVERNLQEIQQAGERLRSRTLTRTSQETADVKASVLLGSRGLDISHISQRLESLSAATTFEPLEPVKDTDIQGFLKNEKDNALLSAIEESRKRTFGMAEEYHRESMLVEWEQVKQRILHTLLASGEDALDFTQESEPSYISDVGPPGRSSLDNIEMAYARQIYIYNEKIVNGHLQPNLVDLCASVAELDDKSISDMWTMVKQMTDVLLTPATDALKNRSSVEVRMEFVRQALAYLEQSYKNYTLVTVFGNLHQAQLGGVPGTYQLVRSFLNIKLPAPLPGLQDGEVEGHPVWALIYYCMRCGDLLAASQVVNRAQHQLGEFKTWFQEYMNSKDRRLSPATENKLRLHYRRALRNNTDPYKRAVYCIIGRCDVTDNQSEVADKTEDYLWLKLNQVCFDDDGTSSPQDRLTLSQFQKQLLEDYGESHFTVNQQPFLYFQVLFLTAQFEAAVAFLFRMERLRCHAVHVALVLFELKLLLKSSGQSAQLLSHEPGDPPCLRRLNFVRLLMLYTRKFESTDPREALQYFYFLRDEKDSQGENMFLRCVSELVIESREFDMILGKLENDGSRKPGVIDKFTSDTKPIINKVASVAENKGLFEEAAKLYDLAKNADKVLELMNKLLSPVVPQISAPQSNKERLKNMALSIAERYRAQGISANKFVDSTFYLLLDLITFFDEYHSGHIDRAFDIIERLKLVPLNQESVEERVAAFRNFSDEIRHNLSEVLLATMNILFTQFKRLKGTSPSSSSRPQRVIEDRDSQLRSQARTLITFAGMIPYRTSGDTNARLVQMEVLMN
# UniProt Q86VK4: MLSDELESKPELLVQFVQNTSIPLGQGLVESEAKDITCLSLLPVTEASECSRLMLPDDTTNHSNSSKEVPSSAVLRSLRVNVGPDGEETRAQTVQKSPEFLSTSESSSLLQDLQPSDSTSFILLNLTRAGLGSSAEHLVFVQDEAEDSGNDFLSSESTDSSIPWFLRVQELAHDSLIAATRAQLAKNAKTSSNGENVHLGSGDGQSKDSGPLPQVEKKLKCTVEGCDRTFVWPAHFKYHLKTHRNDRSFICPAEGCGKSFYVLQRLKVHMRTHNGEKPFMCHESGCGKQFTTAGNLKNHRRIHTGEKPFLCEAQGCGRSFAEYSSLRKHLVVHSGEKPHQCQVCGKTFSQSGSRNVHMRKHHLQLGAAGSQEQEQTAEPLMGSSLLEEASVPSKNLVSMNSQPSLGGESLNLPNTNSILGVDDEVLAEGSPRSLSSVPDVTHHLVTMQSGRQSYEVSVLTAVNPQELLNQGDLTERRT
# UniProt Q96K21: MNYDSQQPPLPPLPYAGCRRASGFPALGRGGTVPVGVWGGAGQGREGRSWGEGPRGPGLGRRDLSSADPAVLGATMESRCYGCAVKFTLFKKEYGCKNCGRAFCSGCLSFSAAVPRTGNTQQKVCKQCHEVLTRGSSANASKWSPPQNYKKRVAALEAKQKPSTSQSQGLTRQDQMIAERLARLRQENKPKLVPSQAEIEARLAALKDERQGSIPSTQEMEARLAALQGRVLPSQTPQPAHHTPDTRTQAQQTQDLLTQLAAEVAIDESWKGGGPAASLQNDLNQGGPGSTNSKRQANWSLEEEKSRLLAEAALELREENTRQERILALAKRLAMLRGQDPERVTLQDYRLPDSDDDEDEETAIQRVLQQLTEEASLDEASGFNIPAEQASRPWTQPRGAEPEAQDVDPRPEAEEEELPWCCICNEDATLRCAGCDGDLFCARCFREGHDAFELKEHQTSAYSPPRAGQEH
# ± gives the standard deviation of the averaged measurements. This is a selection; strong and weak results do not stand in their true shares.
# Compound: Nc1ncnc2c1ncn2[C@@H]1O[C@H](COP(=O)(O)OP(=O)(O)NP(=O)(O)O)[C@@H](O)[C@H]1O [adenylyl imidodiphosphate]
# Test: NP40-soluble protein abundance relative to vehicle (solubility fold change) (ratio); higher = more soluble protein in presence of AMP-PNP
# Method in brief: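 Values are fold changes against the detergent-processed vehicle, based on vsn-normalised intensities. Jurkat crude lysate was treated at eight concentrations from 0.1 to 10 mM (10 min at room temperature, then 3 min at 37 °C), solubilised with 0.8% NP40 and benzonase, ultracentrifuged and analysed by TMT-labelled LC-MS/MS over three independent experiments.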
Target,NP40-soluble protein abundance (concentration: 1mM),NP40-soluble protein abundance (concentration: 2mM),NP40-soluble protein abundance (concentration: 4mM),NP40-soluble protein abundance (concentration: 6mM),NP40-soluble protein abundance (concentration: 8mM),NP40-soluble protein abundance (concentration: 10mM)
H7BYY2 and related entries (UniProt Q6W2J9),0.981 ± 0.062,0.993 ± 0.073,0.989 ± 0.062,0.974 ± 0.052,1.02 ± 0.03,0.961 ± 0.094
H7C4N2 and related entries (UniProt P13797),0.995 ± 0.024,1.02 ± 0.016,0.976 ± 0.029,0.981 ± 0.031,0.961 ± 0.049,0.986 ± 0.026
G3XAH6 and related entries (UniProt P51003),0.998 ± 0.012,1.01 ± 0.07,1 ± 0.021,0.993 ± 0.041,0.979 ± 0.053,0.972 ± 0.057
H7C1J8 and related entries (UniProt P51991),1.07 ± 0.15,1.15 ± 0.11,1.07 ± 0.16,1.12 ± 0.19,1.18 ± 0.18,1.24 ± 0.25
H0YKD8 and related entries (UniProt P46779),1.05 ± 0.14,1.02 ± 0.09,1.01 ± 0.13,0.993 ± 0.071,0.919 ± 0.098,1.05 ± 0.16
H0YAA3 and related entries (UniProt Q9HAD4),1 ± 0.015,0.949 ± 0.048,1.03 ± 0.069,0.969 ± 0.051,0.992 ± 0.02,0.944 ± 0.031
H0Y9X1 and related entries (UniProt Q96EY4),0.95 ± 0.034,0.977 ± 0.036,0.993 ± 0.046,1.14 ± 0.027,1.178 ± 0.0055,1.33 ± 0.044
J3QTA6 and related entries (UniProt Q9BRQ6),0.998 ± 0.036,1.05 ± 0.052,0.966 ± 0.043,0.939 ± 0.057,0.95 ± 0.071,0.945 ± 0.056
J3QRS9 and related entries (UniProt O43670),1.09 ± 0.073,1.09 ± 0.087,1.15 ± 0.074,1.25 ± 0.065,1.29 ± 0.062,1.34 ± 0.1
J3KNA0 and related entries (UniProt Q15070),0.987 ± 0.04,0.961 ± 0.028,0.985 ± 0.045,0.982 ± 0.018,1.02 ± 0.014,0.989 ± 0.025
J3KR58 and related entries (UniProt Q99611),1.04 ± 0.016,1.041 ± 0.0078,1.03 ± 0.032,1.01 ± 0.028,1 ± 0.018,0.991 ± 0.019
J3KQJ1 and related entries (UniProt Q8NBJ7),1 ± 0.043,1 ± 0.029,1.02 ± 0.032,1.03 ± 0.05,1.02 ± 0.04,0.995 ± 0.018
J3KQ34 and related entries (UniProt Q9H9Q2),0.911 ± 0.065,0.94 ± 0.028,0.901 ± 0.043,0.895 ± 0.045,0.882 ± 0.039,0.813 ± 0.07
H0YLM8 and related entries (UniProt Q8TDJ6),0.95 ± 0.011,0.922 ± 0.063,0.974 ± 0.018,0.918 ± 0.038,0.937 ± 0.064,0.92 ± 0.052
J3QKT3 and related entries (UniProt P32322),1 ± 0.017,1 ± 0.068,0.998 ± 0.046,1.04 ± 0.048,1.03 ± 0.041,1.05 ± 0.013
J3QLB2 and related entries (UniProt Q8N1S5),0.989 ± 0.028,0.96 ± 0.024,0.96 ± 0.027,0.954 ± 0.022,0.953 ± 0.0096,0.952 ± 0.039
H3BRQ0 and related entries (UniProt Q96CD2),0.997 ± 0.028,0.998 ± 0.014,0.9917 ± 0.0054,1.018 ± 0.008,1 ± 0.041,0.978 ± 0.011

# Random excerpt: two entries already listed.
Target,NP40-soluble protein abundance (concentration: 1mM),NP40-soluble protein abundance (concentration: 2mM),NP40-soluble protein abundance (concentration: 4mM),NP40-soluble protein abundance (concentration: 6mM),NP40-soluble protein abundance (concentration: 8mM),NP40-soluble protein abundance (concentration: 10mM)
J3KR58 and related entries (UniProt Q99611),1.04 ± 0.016,1.041 ± 0.0078,1.03 ± 0.032,1.01 ± 0.028,1 ± 0.018,0.991 ± 0.019
H7C4N2 and related entries (UniProt P13797),0.995 ± 0.024,1.02 ± 0.016,0.976 ± 0.029,0.981 ± 0.031,0.961 ± 0.049,0.986 ± 0.026

# Additional results follow.

Target,NP40-soluble protein abundance (concentration: 1mM),NP40-soluble protein abundance (concentration: 2mM),NP40-soluble protein abundance (concentration: 4mM),NP40-soluble protein abundance (concentration: 6mM),NP40-soluble protein abundance (concentration: 8mM),NP40-soluble protein abundance (concentration: 10mM)
G5E9C8 and related entries (UniProt Q07889),1.01 ± 0.024,0.9882 ± 0.0016,0.9614 ± 0.0068,0.939 ± 0.013,0.971 ± 0.042,0.96872 ± 0.00068
H3BLV9 and related entries (UniProt Q96SB4),1.08 ± 0.011,1.14 ± 0.035,1.22 ± 0.035,1.29 ± 0.036,1.359 ± 0.011,1.46 ± 0.044
G5E9C0 and related entries (UniProt Q9HB58),1.02 ± 0.051,1.04 ± 0.035,1.03 ± 0.022,1.08 ± 0.036,1.06 ± 0.038,1.12 ± 0.051
I3L0N3 and related entries (UniProt P46459),0.956 ± 0.025,0.902 ± 0.091,0.934 ± 0.034,0.913 ± 0.02,0.917 ± 0.046,0.914 ± 0.08
H0YEM9 and related entries (UniProt Q8NCP5),1.03 ± 0.023,1.03 ± 0.013,1.003 ± 0.0095,1.03 ± 0.025,1.06 ± 0.021,1.02 ± 0.011
H3BNW0 and related entries (UniProt Q9NXG2),0.993 ± 0.021,1.05 ± 0.087,1.04 ± 0.033,1.12 ± 0.086,1.11 ± 0.049,1.12 ± 0.073
I3L3Z2 and related entries (UniProt Q9BRA0),0.948 ± 0.04,1 ± 0.041,1 ± 0.032,1.01 ± 0.054,1 ± 0.028,1.01 ± 0.061
H3BMQ0 and related entries (UniProt P49815),1 ± 0.022,1.01 ± 0.036,0.968 ± 0.011,0.933 ± 0.048,0.919 ± 0.037,0.916 ± 0.029
J3QR07 and related entries (UniProt Q96MU7),1.06 ± 0.058,1.12 ± 0.07,1.09 ± 0.045,1.12 ± 0.11,1.12 ± 0.072,1.16 ± 0.086
H3BP13 and related entries (UniProt Q9UL33),0.975 ± 0.037,0.965 ± 0.049,0.995 ± 0.018,1.02 ± 0.065,1.02 ± 0.048,1.01 ± 0.042
J3KQ40 and related entries (UniProt O95759),1.004 ± 0.0068,1 ± 0.014,0.995 ± 0.018,1.014 ± 0.0064,1 ± 0.017,0.9892 ± 0.0093
G5E9V5 and related entries (UniProt P82650),1 ± 0.076,0.946 ± 0.095,0.947 ± 0.12,0.924 ± 0.14,0.92 ± 0.13,0.913 ± 0.18
H3BVG0 and related entries (UniProt Q8N1F7),0.963 ± 0.037,0.9258 ± 0.0092,0.952 ± 0.03,0.994 ± 0.037,1.01 ± 0.015,1.03 ± 0.026
J3KNQ6 and related entries (UniProt Q86VK4),0.9972 ± 0.0069,1.01 ± 0.023,0.981 ± 0.021,1.03 ± 0.03,1.03 ± 0.033,1.02 ± 0.013
H3BRF9 and related entries (UniProt Q96K21),0.998 ± 0.015,1.03 ± 0.05,1.02 ± 0.049,0.979 ± 0.02,0.959 ± 0.028,0.997 ± 0.044
H0YC40 and related entries (UniProt Q08722),0.99 ± 0.022,1.07 ± 0.087,0.982 ± 0.051,1.02 ± 0.04,0.991 ± 0.05,1.02 ± 0.069
